The text below walks through data of US8987242B2, “Morpholinone compounds as factor IXA inhibitors” (Merck Sharp & Dohme Corp., priority 2008, dated 2015).

The chains behind the UniProt entries cited, without tags or fusion partners. Residues count along the entry.
UniProt P00740, 227-461 limits assumed: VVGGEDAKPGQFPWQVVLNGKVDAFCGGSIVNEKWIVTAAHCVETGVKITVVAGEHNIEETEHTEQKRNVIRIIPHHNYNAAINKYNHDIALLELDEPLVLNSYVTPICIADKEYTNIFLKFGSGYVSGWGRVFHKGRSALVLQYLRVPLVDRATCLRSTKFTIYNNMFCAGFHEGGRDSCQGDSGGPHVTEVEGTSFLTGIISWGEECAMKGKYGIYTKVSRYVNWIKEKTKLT
UniProt P00740, 47-191 partner limits assumed: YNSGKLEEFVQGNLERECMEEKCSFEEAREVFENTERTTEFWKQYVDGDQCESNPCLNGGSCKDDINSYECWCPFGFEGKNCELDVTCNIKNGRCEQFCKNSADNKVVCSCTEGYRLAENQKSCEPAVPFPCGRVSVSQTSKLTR

In the assay the target is human factor IXa (Homo sapiens (Human), UniProt P00740). The assay can be described thus: Determination of inhibitory activity against factor IXa (SPECTROFLUOR FIXa fluorogenic substrate enzyme assay). The conditions noted are these: read-out: Factor IXa enzyme assay IC50; human factor IXa 2.0 μg/ml, SPECTROFLUOR FIXa 100 μM, 60 minutes at room temperature, pH 8.0; tested form: HCl.

The structures given here were assigned with low confidence; some may be wrong.

With `N=C1NCc2cc(NC(=O)[C@H](O)[C@H]3OCCN(c4ccc5ccc(=O)n(CC(=O)O)c5c4)C3=O)ccc21`, the concentration for half-maximal inhibition (IC50) – broadly, the concentration that gives 50% inhibition – was 9.6 nM.
In the case of `COC(=O)CN1C(=O)CCc2ccc(N3CCO[C@H]([C@@H](O)C(=O)Nc4ccc5c(c4)CNC5=N)C3=O)cc21`, the IC50 was determined as 9 nM.
`N=C(N)c1ccc(NC(=O)[C@H](O)[C@H]2OCCN(c3ccc4[nH]c(=O)ccc4c3)C2=O)cc1F`: the IC50 stood at 9.3 nM.
As to `N=C1NCc2cc(NC(=O)[C@H](O)[C@H]3OCCN(c4ccc5[nH]c(=O)ccc5c4)C3=O)ccc21`, the IC50 came to 12 nM.
